Results published in PubChem BioAssay AID2685 (National Center for Advancing Translational Sciences (NCATS), 2010).
In all, about 320,000 compounds went through this assay and about 2,100 (0.66%) were called active. The inconclusive results got no clear call from the source; some entries with a clear call stand among them for comparison. Calls come from the whole dose curve; as a rule, active = well fitted inhibition curve with a large enough effect in the signal ratio, with a control signal flat (not every such curve was filed as active); inconclusive = small, poorly fitted or top-dose-only effect, or effect the other way, or a change in a side signal; inactive = flat fitted curve, though single readings scatter; the % refers to the signal ratio. A potency beside an inconclusive call is a rough fit, not a confirmed value.

assay: qHTS Assay for Lipid Storage Modulators in Drosophila S3 Cells; settings: BODIPY lipid droplet fluorescence, 18-24 h, cells fed with added oleic acid; lipid storage change, negative = inhibition: at 46.1 µM (top of the series) unless noted
How it was run: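 Drosophila S3 cells got compounds at several concentrations plus oleic acid (400 uM solution). Laser-scanning cytometry with 488 nm excitation read lipid droplets at 500-530 nm and cells at 575-640 nm. Percent activity was relative to 20 uM Triacsin C.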
% is set by controls: 0 for no effect and ±100 for the full control effect; potency is the fitted concentration of half-maximal effect.

Q: With `CC1CN(S(=O)(=O)c2ccccc2)CN1C(=O)N1CCOCC1` (centres undefined) as the compound, how does the lipid storage change, negative = inhibition read?
A: inconclusive: -52.4%

Q: For `Cc1ccc(NC(=O)c2cc(S(=O)(=O)N3CCOCC3)cn2C)cc1Cl`, which lipid storage change, negative = inhibition is on record?
A: inconclusive: -44.9%

Q: Which lipid storage change, negative = inhibition does the source give for `O=C(NC1CCCC1)C(c1ccncc1)N(C(=O)c1ccco1)c1ccc(F)c(Cl)c1` (centres undefined) here?
A: inconclusive: 32.4%

Q: With `CN(CC(=O)Nc1ccccc1Cl)C(=O)COC(=O)C1CC1` as the compound, how does the lipid storage change, negative = inhibition read?
A: inconclusive: -14.4%

Q: For `Cc1cccc(C)c1NC(=O)CCn1cnc2ccccc2c1=O`, which lipid storage change, negative = inhibition is on record?
A: inconclusive: -18.9%

Q: With `CCCc1nnc(NC(=O)C(=O)NCCN(C)C)s1` as the compound, how does the lipid storage change, negative = inhibition read?
A: inconclusive: 20.1%

Q: Which Potency does the source give for `COc1cc(S(=O)(=O)N2CCCCC2)ccc1NC(=O)/C=C/c1ccccc1` here?
A: inconclusive: 6.51 µM [rising, single point]

Q: Which Potency does the source give for `COc1ccc(CNC(c2ccccc2)c2ccc(Cl)cc2)cc1` (centres undefined) here?
A: inconclusive: 29.1 µM [rising, partial curve]

Q: With `Cc1ccc(CNc2ncnc3cc(Cl)ccc23)o1` as the compound, how does the Potency read?
A: inconclusive: 6.51 µM [activator, single point]

Q: Which lipid storage change, negative = inhibition does the source give for `CCN(C(=O)CSc1nc2ccc(O)cc2c(=O)n1-c1ccc(OC)c(OC)c1)C1CCS(=O)(=O)C1` (centres undefined) here?
A: inconclusive

Q: For `Cc1ccc(S(=O)(=O)N2CCN(CC(=O)Nc3ccccc3Cl)CC2)cc1`, which Potency is on record?
A: inconclusive: 58 µM [falling, partial curve, poor fit]

Q: For `N#CC(/C(=N/S(=O)(=O)c1cccs1)c1ccccc1)c1nc2ccccc2[nH]1` (centres undefined), which lipid storage change, negative = inhibition is on record?
A: inconclusive: -0.192%

Q: For `Cc1nnc(C)n1/N=C/c1cc(Br)cc(Br)c1O`, which Potency is on record?
A: inconclusive: 18.4 µM [falling, single point]

Q: For `CCc1ccc(N(CC(=O)N2CCCCCC2)S(C)(=O)=O)cc1`, which Potency is on record?
A: inconclusive: 29.1 µM [falling, single point]

Q: For `CC(C)C(C(=O)N1CCN(Cc2ccccc2)CC1)c1ccccc1` (centres undefined), which lipid storage change, negative = inhibition is on record?
A: inconclusive: 0.188%

Q: With `CC1(C)CC(=O)C2=C(C1)Nc1ccccc1NC2c1nc2ccccc2[nH]1` (centres undefined) as the compound, how does the lipid storage change, negative = inhibition read?
A: inconclusive: 38%

Q: For `COc1ccccc1C(=O)NC(=O)COC(=O)c1ccc([N+](=O)[O-])cc1`, which lipid storage change, negative = inhibition is on record?
A: inconclusive: 8.12%

Q: With `COc1ccc(NC(=O)c2ccco2)cc1NC(=O)c1ccco1` as the compound, how does the Potency read?
A: inconclusive: 20.6 µM [activator, single point]

Q: Which Potency does the source give for `Cc1cccc(NC(=O)CSc2ncnc3sc(C)cc23)c1` here?
A: inconclusive: 11.6 µM [falling, single point]

Q: With `CN(CC(=O)Nc1cccc(F)c1)CC(=O)Nc1cccc(S(=O)(=O)N2CCCCC2)c1` as the compound, how does the Potency read?
A: inconclusive: 32.6 µM [falling, single point]

Q: Which Potency does the source give for `O=c1c2cnn(-c3ccccc3)c2nc(-c2cccs2)n1-c1cccc(Cl)c1` here?
A: inconclusive: 20.6 µM [falling, single point]

Q: Which lipid storage change, negative = inhibition does the source give for `O=C(c1ccccc1)N1CCN(Cc2ccc3c(c2)OCO3)CC1` here?
A: inconclusive: -48.7%

Q: For `CCc1c(C)nc(N)c(C#N)c1-c1ccccc1`, which lipid storage change, negative = inhibition is on record?
A: inconclusive: -12.6%

Q: With `O=C(CSc1nnc2c(n1)[nH]c1ccccc12)Nc1cccc(S(=O)(=O)N2CCOCC2)c1` as the compound, how does the Potency read?
A: inconclusive: 9.2 µM [cytotoxic, partial curve]

Q: Which lipid storage change, negative = inhibition does the source give for `COc1ccccc1NC(=O)c1cc(S(=O)(=O)NC2CCCC2)ccc1F` here?
A: inconclusive: -22.1%

Q: With `COc1cc(-c2nc3cccc(C)n3c2NCC2CCCO2)ccc1O` (centres undefined) as the compound, how does the lipid storage change, negative = inhibition read?
A: inconclusive: -19%

Q: Which lipid storage change, negative = inhibition does the source give for `CCOC(=O)c1nn(-c2ccccc2F)c(-c2ccccc2)c1C(=O)c1ccccc1` here?
A: inconclusive: 7.99%

Q: For `Cc1ccc(CNC(=O)CN(C)S(=O)(=O)c2cnc[nH]2)cc1`, which lipid storage change, negative = inhibition is on record?
A: inconclusive: 6.38%

Q: For `COc1ccc(-c2nn(-c3ccccc3)cc2/C=C/C(=O)OCC(=O)Nc2cccc(C#N)c2)cc1`, which lipid storage change, negative = inhibition is on record?
A: inconclusive: -1.25%

Q: For `COc1cc(NC(=O)c2ccc(C)cc2)c(OC)cc1NC(=O)CN1CCOCC1`, which Potency is on record?
A: inconclusive: 0.13 µM [falling, full curve]

Q: For `Cc1ccc(NC(=O)COC(=O)c2c[nH]c3ccccc23)cc1C`, which Potency is on record?
A: inconclusive: 0.116 µM [activator, full curve]

Q: With `O=C1c2ccccc2C(=O)C12Cc1ccccc1N1CCN(c3ccccc3)CC12` (centres undefined) as the compound, how does the Potency read?
A: inconclusive: 0.651 µM [activator, full curve]

Q: Which Potency does the source give for `COc1ccc(S(=O)(=O)N2CCN(C(=O)c3cc(-c4ccc(C)cc4)n[nH]3)CC2)cc1` here?
A: inconclusive: 9.2 µM [falling, partial curve, poor fit]

Q: Which lipid storage change, negative = inhibition does the source give for `O=C(CCCOc1ccccc1)Nc1cccc(C(=O)O)c1` here?
A: inconclusive: -33.2%

Q: Which Potency does the source give for `C=CCNC(=S)N/N=C/c1cn(C)c2ccccc12` here?
A: inconclusive: 2.91 µM [activator, partial curve]

Q: Which lipid storage change, negative = inhibition does the source give for `O=C1c2cccnc2C(O)N1Cc1ccco1` (centres undefined) here?
A: inconclusive: -0.0724%

Q: Which lipid storage change, negative = inhibition does the source give for `COc1ccc(NC(=O)c2cccc(N3C(=O)C4C5C=CC(C6CC56)C4C3=O)c2)cc1` (centres undefined) here?
A: inactive

Q: Which lipid storage change, negative = inhibition does the source give for `CC(=O)Nc1nonc1-c1nc2ccccc2n1Cc1ccccn1` here?
A: inconclusive: 16%

Q: For `Cc1cc[n+](CC(=O)c2cc3ccccc3oc2=O)cc1`, which lipid storage change, negative = inhibition is on record?
A: inconclusive: 99.6%

Q: For `COc1ccccc1CCC(=O)Nc1cccc(S(=O)(=O)N2CCOCC2)c1`, which lipid storage change, negative = inhibition is on record?
A: inactive

Q: For `Cc1cc(=O)oc2cc(NC(=S)NNC(=O)c3c(Cl)cnn3C)ccc12`, which Potency is on record?
A: inconclusive: 25.9 µM [rising, single point]

Q: For `COc1ccc2oc(C(=O)OCC(=O)N3CCN(S(=O)(=O)c4ccc(C)cc4)CC3)c(C)c2c1`, which lipid storage change, negative = inhibition is on record?
A: inconclusive: -23.9%

Q: With `O=C(O)C=C1C2CC3CC(C2)CC1C3` as the compound, how does the lipid storage change, negative = inhibition read?
A: inconclusive: -9.4%

Q: Which Potency does the source give for `COc1cnc(SCc2ccc(Cl)cc2Cl)nc1Cl` here?
A: inconclusive: 23.1 µM [falling, single point]

Q: For `O=C(NNc1ccccn1)C(=O)NNS(=O)(=O)c1ccc(F)cc1`, which lipid storage change, negative = inhibition is on record?
A: inconclusive: -11%

Q: With `CCN(C(=O)CN1C(=O)c2ccc([N+](=O)[O-])cc2C1=O)C1CCCCC1` as the compound, how does the lipid storage change, negative = inhibition read?
A: inconclusive: -100%

Q: With `CC(Cc1c[nH]c2ccccc12)NC(=O)C1CCCNC1=O` (centres undefined) as the compound, how does the lipid storage change, negative = inhibition read?
A: inconclusive: 51.3%

Q: With `COc1ccc(CCc2nc(-c3cccs3)no2)cc1` as the compound, how does the lipid storage change, negative = inhibition read?
A: inconclusive: -29.5%

Q: Which lipid storage change, negative = inhibition does the source give for `Cc1ccc(NC2=C(Cl)C(=O)OC2OC(=O)c2ccccc2C)cc1` (centres undefined) here?
A: inconclusive: -1.99%
